Assay results published in the supplement of paper PMC7666118.
The other results are listed elsewhere or left out.

By UniProt entry, the sequences of proteins in these tests, tags left out. Where a name states a change or a piece, a line headed by the entry shows the natural chain unless it says otherwise.
UniProt Q8NB90: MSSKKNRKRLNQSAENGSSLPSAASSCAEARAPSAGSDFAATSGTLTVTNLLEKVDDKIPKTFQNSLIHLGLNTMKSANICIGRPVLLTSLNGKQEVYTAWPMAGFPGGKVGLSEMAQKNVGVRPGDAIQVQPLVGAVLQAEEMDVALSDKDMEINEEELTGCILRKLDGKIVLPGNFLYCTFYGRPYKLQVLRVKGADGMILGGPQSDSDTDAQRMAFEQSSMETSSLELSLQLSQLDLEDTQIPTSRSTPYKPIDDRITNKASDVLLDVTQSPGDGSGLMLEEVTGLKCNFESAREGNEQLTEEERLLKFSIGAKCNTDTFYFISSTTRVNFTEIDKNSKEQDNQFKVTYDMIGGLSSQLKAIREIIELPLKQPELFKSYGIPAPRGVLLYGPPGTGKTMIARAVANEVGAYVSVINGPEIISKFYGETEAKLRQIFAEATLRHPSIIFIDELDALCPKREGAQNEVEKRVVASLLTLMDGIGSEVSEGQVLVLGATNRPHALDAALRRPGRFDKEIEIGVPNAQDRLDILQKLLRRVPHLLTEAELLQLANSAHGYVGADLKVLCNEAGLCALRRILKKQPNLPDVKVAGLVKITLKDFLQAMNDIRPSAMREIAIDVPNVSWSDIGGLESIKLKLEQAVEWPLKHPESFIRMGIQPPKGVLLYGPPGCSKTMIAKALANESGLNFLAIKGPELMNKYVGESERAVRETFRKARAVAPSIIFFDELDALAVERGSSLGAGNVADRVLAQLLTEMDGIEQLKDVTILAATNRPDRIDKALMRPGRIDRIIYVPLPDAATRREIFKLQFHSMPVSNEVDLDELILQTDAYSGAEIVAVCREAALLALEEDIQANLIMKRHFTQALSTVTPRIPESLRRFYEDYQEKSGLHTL
UniProt Q8IYJ3: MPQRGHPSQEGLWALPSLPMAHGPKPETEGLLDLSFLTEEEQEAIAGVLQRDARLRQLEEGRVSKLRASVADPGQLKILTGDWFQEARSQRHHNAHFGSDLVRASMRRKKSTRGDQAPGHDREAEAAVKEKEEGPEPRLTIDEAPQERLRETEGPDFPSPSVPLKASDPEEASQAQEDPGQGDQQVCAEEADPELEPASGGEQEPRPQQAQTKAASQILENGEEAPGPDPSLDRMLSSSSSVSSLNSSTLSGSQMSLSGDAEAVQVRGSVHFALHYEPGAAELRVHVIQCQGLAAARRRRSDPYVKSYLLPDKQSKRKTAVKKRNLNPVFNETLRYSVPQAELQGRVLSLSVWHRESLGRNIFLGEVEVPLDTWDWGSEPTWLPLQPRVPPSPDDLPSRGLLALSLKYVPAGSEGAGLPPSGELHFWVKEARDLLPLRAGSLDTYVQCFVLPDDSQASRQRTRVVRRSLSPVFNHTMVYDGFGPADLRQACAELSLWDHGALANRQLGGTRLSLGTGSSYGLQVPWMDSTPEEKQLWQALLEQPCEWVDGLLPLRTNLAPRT
UniProt Q9Y6N5: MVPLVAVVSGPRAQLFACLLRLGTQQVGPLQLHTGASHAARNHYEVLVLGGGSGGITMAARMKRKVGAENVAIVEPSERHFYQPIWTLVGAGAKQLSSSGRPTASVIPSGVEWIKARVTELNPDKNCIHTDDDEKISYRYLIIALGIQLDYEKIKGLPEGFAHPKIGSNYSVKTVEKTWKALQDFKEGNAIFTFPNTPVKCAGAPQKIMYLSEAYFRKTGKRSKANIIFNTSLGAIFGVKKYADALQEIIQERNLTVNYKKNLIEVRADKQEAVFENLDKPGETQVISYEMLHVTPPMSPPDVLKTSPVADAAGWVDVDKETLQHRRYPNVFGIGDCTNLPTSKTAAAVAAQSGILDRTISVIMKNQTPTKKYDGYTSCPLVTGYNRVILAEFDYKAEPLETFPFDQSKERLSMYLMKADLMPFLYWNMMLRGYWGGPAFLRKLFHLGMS
UniProt Q9NRL3: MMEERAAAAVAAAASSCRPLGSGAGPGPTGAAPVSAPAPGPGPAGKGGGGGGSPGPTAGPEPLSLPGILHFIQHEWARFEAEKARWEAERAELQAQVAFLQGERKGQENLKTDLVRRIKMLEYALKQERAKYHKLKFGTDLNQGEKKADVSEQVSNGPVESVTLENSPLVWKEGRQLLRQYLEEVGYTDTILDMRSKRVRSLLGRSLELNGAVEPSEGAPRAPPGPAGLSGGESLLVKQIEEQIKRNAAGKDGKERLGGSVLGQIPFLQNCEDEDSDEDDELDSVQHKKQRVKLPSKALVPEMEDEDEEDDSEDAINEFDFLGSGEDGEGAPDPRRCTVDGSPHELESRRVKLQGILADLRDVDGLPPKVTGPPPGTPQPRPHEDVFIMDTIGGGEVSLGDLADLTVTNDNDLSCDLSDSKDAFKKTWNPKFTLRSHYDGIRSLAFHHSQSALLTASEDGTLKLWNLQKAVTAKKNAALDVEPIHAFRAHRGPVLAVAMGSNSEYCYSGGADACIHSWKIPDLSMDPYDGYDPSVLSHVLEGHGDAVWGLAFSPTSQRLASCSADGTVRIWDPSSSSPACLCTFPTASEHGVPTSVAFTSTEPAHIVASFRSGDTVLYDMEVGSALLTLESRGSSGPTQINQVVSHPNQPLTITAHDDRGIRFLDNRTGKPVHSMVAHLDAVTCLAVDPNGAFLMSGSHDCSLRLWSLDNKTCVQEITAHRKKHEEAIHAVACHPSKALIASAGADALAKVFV
UniProt Q16563: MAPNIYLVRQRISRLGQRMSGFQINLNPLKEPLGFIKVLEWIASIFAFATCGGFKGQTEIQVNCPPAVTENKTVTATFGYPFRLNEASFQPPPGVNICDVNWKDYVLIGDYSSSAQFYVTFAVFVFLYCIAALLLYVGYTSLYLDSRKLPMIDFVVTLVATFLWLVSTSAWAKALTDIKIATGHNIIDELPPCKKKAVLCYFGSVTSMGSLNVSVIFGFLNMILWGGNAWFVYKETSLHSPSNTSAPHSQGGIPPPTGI
UniProt Q13033: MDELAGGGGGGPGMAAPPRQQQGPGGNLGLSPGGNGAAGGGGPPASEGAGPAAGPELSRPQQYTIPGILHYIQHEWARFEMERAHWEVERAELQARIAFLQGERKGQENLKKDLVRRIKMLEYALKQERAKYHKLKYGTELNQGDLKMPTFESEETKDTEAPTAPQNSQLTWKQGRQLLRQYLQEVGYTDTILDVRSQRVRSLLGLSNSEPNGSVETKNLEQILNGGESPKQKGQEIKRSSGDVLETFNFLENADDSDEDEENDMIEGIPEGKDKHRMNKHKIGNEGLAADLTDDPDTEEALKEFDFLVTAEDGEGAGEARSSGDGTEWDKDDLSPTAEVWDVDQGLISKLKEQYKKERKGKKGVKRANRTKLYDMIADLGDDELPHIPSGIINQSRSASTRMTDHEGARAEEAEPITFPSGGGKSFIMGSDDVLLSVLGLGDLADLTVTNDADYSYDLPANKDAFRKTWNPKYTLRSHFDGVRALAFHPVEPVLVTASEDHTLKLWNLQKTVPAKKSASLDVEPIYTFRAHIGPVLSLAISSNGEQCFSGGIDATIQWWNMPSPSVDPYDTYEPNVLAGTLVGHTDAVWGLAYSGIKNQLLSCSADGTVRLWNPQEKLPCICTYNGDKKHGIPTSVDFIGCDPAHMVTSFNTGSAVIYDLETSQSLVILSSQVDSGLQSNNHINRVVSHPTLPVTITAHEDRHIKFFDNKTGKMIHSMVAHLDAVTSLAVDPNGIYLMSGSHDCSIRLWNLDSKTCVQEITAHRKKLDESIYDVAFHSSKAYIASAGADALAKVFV
UniProt Q92536: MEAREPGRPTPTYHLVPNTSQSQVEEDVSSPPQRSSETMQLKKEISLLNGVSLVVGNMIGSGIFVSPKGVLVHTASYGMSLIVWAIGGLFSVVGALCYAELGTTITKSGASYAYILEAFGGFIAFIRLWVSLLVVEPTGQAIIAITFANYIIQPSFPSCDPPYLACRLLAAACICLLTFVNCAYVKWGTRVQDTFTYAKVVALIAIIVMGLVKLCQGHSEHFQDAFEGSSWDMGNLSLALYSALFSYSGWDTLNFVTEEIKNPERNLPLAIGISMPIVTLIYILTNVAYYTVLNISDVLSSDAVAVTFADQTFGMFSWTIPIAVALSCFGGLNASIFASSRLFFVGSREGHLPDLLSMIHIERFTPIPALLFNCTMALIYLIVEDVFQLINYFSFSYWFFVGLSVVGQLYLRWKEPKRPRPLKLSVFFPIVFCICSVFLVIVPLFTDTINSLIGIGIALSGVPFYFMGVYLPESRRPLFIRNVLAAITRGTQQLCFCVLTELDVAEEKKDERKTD
UniProt P53597: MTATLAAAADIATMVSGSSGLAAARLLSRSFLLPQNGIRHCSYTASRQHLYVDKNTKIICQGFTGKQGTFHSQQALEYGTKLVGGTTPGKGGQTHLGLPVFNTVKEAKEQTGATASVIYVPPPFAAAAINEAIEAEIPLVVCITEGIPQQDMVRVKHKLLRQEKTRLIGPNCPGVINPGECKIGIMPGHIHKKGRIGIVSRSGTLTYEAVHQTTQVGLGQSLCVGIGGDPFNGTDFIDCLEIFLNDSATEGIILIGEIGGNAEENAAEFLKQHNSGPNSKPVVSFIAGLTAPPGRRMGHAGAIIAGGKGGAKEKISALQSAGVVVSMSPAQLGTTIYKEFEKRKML
UniProt O95391: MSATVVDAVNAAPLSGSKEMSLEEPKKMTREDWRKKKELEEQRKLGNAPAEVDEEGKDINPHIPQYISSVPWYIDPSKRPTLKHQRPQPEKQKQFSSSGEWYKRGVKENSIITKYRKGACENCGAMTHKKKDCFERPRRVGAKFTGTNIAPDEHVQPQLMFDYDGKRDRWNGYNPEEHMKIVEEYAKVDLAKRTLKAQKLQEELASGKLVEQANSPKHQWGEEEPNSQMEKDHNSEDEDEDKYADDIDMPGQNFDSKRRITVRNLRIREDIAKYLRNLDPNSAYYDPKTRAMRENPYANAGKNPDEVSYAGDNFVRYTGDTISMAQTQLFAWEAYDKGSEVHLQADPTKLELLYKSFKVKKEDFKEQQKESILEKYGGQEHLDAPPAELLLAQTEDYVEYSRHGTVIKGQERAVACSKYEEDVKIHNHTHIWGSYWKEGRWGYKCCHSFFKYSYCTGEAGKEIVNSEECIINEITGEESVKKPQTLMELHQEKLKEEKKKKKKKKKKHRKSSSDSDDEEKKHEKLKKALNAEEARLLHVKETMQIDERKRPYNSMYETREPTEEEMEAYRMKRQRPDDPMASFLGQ
UniProt P09661: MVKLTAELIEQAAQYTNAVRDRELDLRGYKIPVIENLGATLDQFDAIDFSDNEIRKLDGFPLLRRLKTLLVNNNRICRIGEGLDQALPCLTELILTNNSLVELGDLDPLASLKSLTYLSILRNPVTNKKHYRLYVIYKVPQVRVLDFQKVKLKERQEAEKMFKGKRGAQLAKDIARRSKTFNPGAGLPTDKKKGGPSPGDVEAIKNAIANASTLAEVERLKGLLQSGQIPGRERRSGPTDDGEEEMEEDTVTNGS
UniProt P61956, whole entry: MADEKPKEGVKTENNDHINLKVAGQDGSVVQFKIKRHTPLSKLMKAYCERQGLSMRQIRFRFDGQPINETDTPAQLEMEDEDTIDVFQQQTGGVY
UniProt Q15208: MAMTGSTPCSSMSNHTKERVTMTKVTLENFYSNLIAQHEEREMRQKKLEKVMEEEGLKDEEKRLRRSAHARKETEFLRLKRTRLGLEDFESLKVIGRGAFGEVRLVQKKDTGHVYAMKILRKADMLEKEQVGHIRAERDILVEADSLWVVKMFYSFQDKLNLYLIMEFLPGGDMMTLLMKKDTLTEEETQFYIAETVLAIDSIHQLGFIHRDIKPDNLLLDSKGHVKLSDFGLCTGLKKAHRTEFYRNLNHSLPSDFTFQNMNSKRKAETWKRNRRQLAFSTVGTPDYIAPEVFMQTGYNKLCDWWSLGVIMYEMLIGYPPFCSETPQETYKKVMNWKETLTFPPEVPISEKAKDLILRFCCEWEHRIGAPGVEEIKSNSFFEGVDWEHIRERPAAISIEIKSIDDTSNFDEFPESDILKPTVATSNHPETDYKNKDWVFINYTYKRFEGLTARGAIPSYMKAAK
UniProt Q9UBP0: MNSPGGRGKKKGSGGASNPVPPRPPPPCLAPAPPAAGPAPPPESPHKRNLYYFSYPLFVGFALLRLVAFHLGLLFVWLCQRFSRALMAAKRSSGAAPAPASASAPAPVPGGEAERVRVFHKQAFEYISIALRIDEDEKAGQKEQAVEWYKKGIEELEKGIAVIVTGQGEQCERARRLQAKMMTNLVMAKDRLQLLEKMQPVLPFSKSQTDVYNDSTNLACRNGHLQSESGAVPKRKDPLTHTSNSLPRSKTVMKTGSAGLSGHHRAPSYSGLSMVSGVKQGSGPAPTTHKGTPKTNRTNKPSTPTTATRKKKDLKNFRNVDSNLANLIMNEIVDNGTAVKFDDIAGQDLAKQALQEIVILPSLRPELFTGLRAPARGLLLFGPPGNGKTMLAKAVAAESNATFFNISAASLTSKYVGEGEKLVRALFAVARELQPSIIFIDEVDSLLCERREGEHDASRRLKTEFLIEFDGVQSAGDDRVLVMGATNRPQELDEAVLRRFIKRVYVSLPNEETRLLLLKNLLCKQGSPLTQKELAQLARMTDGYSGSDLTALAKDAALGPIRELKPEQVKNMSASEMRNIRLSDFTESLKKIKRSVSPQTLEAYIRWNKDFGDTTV

Compound: COc1ccc(Cn2ccc3ccc(C(=O)NO)cc32)cc1
Experiment: dose-dependent thermal stabilisation call (2D-TPP, DLPTP, 10% FDR) (binary (1 = stabilised)); higher = stabilised by the compound
Details: system: HL-60 intact cells; concentration range 0.04-10 µM

Target	dose-dependent thermal stabilisation call
SPATA5 (UniProt Q8NB90)	inactive: 0
SYTL1 (UniProt Q8IYJ3)	inactive: 0
SMC1A (UniProt Q14683)	inactive: 0
SQRDL (UniProt Q9Y6N5)	inactive: 0
SNX30 (UniProt Q5VWJ9)	inactive: 0
SRP14 (UniProt P37108)	inactive: 0
STAT1 (UniProt P42224)	inactive: 0
STRN4 (UniProt Q9NRL3)	inactive: 0
STK24 (UniProt Q9Y6E0)	inactive: 0
SMC6 (UniProt Q96SB8)	inactive: 0
SYPL1 (UniProt Q16563)	inactive: 0
SUMF2 (UniProt Q8NBJ7)	inactive: 0
SNX27 (UniProt Q96L92)	inactive: 0
SPNS1 (UniProt Q9H2V7)	inactive: 0
SRPRB (UniProt Q9Y5M8)	inactive: 0
STRN3 (UniProt Q13033)	inactive: 0
SLC7A6 (UniProt Q92536)	inactive: 0
STT3A (UniProt P46977)	inactive: 0
STK3 (UniProt Q13188)	inactive: 0

Target	dose-dependent thermal stabilisation call
TAF10 (UniProt Q12962)	inactive: 0
SMAD2 (UniProt Q15796)	inactive: 0
SUCLG1 (UniProt P53597)	inactive: 0
SND1 (UniProt Q7KZF4)	inactive: 0
SP100 (UniProt P23497)	inactive: 0
SSRP1 (UniProt Q08945)	inactive: 0
SLU7 (UniProt O95391)	inactive: 0
SNAPIN (UniProt O95295)	inactive: 0
SNRPA1 (UniProt P09661)	active: 1
SMAD4 (UniProt Q13485)	inactive: 0
STAP1 (UniProt Q9ULZ2)	inactive: 0
SMARCE1 (UniProt Q969G3)	inactive: 0
SUMO2 (UniProt P61956)	inactive: 0
SMARCD2 (UniProt Q92925)	inactive: 0
STK38L (UniProt Q9Y2H1)	inactive: 0
SMYD3 (UniProt Q9H7B4)	inactive: 0
STK38 (UniProt Q15208)	inactive: 0
SPAST (UniProt Q9UBP0)	inactive: 0

Part of the list above, as labelled records:
SMAD2 (UniProt Q15796)
  dose-dependent thermal stabilisation call: inactive: 0
SUCLG1 (UniProt P53597)
  dose-dependent thermal stabilisation call: inactive: 0
